# Reference: the supplement of paper PMC8728848
# This is one part of the list.
# B1: cFel (Cyprinus carpio), P68512 (protein)
# chain: LDCTVIDGNLKQIDAGSGSVVGVNNLNETFVLIDNVFTKISGSLKHFSVGPAGQLGVNTANNIFKYQSGGFVQLAGLLKQVDAGGDQIIAGVNMYDDIYCLNMDANNKWPSSNTPWVQINGKLKYYSCGPYSCWGVNSNDQIFIMKDVSSNVCSGSGSFINIPGLLSMIEVATDGSVFGVNSQGNLYQRTGVTRSKPDGTDWISMVACPNGHKHVSFDLGVLWLVCVDGSIRKCILTD
# Tests used:
# Experiment in all cases: glycan array binding signal (z-score within array); higher = stronger binding
# Settings in all cases: glycan notation: IUPAC condensed, linker removed
# [1] = biological target: Gal(b1-4)GalNAc(b1-3)[Fuc(a1-2)]Gal(b1-4)GlcNAc
# In short: (§1)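 Negative Z-scores can be read as non-binding. The Z-score is calculated within each array and then averaged across arrays of one protein sequence at different concentrations or buffers and across linkers. Arrays, 3228 in all, were curated from the Consortium for Functional Glycomics database and kept only where the protein sequence was available.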
# Gal(b1-4)Glc = biological target: Gal(b1-4)Glc
# In short: as §1
# Gal(b1-4)Glc6S = biological target: Gal(b1-4)Glc6S
# In short: as §1
# Gal(b1-4)GlcNAc = biological target: Gal(b1-4)GlcNAc
# In short: as §1
# [2] = biological target: Gal(b1-4)GlcNAc(a1-6)Gal(b1-4)GlcNAc
# In short: as §1
# Gal(b1-4)GlcNAc(b1-2)Man = biological target: Gal(b1-4)GlcNAc(b1-2)Man
# In short: as §1
# [3] = biological target: Gal(b1-4)GlcNAc(b1-2)Man(a1-3)Man(b1-4)GlcNAc(b1-4)GlcNAc
# In short: as §1
# [4] = biological target: Gal(b1-4)GlcNAc(b1-2)Man(a1-3)[Gal(b1-4)GlcNAc(b1-2)Man(a1-6)]Man(b1-4)GlcNAc(b1-4)GlcNAc
# In short: as §1
# [5] = biological target: Gal(b1-4)GlcNAc(b1-2)Man(a1-3)[Gal(b1-4)GlcNAc(b1-2)Man(a1-6)]Man(b1-4)GlcNAc(b1-4)[Fuc(a1-6)]GlcNAc
# In short: as §1
# [6] = biological target: Gal(b1-4)GlcNAc(b1-2)Man(a1-3)[Gal(b1-4)GlcNAc(b1-2)Man(a1-6)][Gal(b1-4)GlcNAc(b1-4)]Man(b1-4)GlcNAc(b1-4)[Fuc(a1-6)]GlcNAc
# In short: as §1
# [7] = biological target: Gal(b1-4)GlcNAc(b1-2)Man(a1-3)[Gal(b1-4)GlcNAc(b1-2)Man(a1-6)][GlcNAc(b1-4)]Man(b1-4)GlcNAc(b1-4)[Fuc(a1-6)]GlcNAc
# In short: as §1
# [8] = biological target: Gal(b1-4)GlcNAc(b1-2)Man(a1-3)[GlcNAc(b1-2)Man(a1-6)]Man(b1-4)GlcNAc(b1-4)GlcNAc
# In short: as §1
# [9] = biological target: Gal(b1-4)GlcNAc(b1-2)Man(a1-3)[GlcNAc(b1-4)][Gal(b1-4)GlcNAc(b1-2)Man(a1-6)]Man(b1-4)GlcNAc(b1-4)GlcNAc
# In short: as §1
# [10] = biological target: Gal(b1-4)GlcNAc(b1-2)Man(a1-3)[Man(a1-6)]Man(b1-4)GlcNAc(b1-4)GlcNAc
# In short: as §1
# [11] = biological target: Gal(b1-4)GlcNAc(b1-2)Man(a1-6)Man(b1-4)GlcNAc(b1-4)GlcNAc
# In short: as §1
# [12] = biological target: Gal(b1-4)GlcNAc(b1-2)Man(a1-6)[GlcNAc(b1-2)Man(a1-3)]Man(b1-4)GlcNAc(b1-4)GlcNAc
# In short: as §1
# [13] = biological target: Gal(b1-4)GlcNAc(b1-2)Man(a1-6)[Man(a1-3)]Man(b1-4)GlcNAc(b1-4)GlcNAc
# In short: as §1
# [14] = biological target: Gal(b1-4)GlcNAc(b1-2)[Gal(b1-4)GlcNAc(b1-4)]Man(a1-3)[Gal(b1-4)GlcNAc(b1-2)Man(a1-6)]Man(b1-4)GlcNAc(b1-4)GlcNAc
# In short: as §1
# [15] = biological target: Gal(b1-4)GlcNAc(b1-2)[Gal(b1-4)GlcNAc(b1-4)]Man(a1-3)[Gal(b1-4)GlcNAc(b1-2)[Gal(b1-4)GlcNAc(b1-6)]Man(a1-6)]Man(b1-4)GlcNAc(b1-4)GlcNAc
# In short: as §1
# [16] = biological target: Gal(b1-4)GlcNAc(b1-2)[Gal(b1-4)GlcNAc(b1-4)]Man(a1-3)[GlcNAc(b1-4)][Gal(b1-4)GlcNAc(b1-2)Man(a1-6)]Man(b1-4)GlcNAc(b1-4)GlcNAc
# In short: as §1
# [17] = biological target: Gal(b1-4)GlcNAc(b1-2)[Gal(b1-4)GlcNAc(b1-4)]Man(a1-3)[GlcNAc(b1-4)][Gal(b1-4)GlcNAc(b1-2)[Gal(b1-4)GlcNAc(b1-6)]Man(a1-6)]Man(b1-4)GlcNAc(b1-4)GlcNAc
# In short: as §1
# [18] = biological target: Gal(b1-4)GlcNAc(b1-2)[Gal(b1-4)GlcNAc(b1-6)]Man(a1-6)[Gal(b1-4)GlcNAc(b1-2)Man(a1-3)]Man(b1-4)GlcNAc(b1-4)GlcNAc
# In short: as §1
binder,measurement,setting,value
B1,glycan array binding signal (z-score),[1],-0.342
same,glycan array binding signal (z-score),Gal(b1-4)Glc,-0.256
same,glycan array binding signal (z-score),Gal(b1-4)Glc6S,-0.513
same,glycan array binding signal (z-score),Gal(b1-4)GlcNAc,-0.048
same,glycan array binding signal (z-score),[2],-0.673
same,glycan array binding signal (z-score),Gal(b1-4)GlcNAc(b1-2)Man,0.263
same,glycan array binding signal (z-score),[3],-0.886
same,glycan array binding signal (z-score),[4],-0.557
same,glycan array binding signal (z-score),[5],-0.349
same,glycan array binding signal (z-score),[6],0.308
same,glycan array binding signal (z-score),[7],-0.777
same,glycan array binding signal (z-score),[8],0.271
same,glycan array binding signal (z-score),[9],1.54
same,glycan array binding signal (z-score),[10],-1.05
same,glycan array binding signal (z-score),[11],1.96
same,glycan array binding signal (z-score),[12],-0.838
same,glycan array binding signal (z-score),[13],-0.406
same,glycan array binding signal (z-score),[14],3.29
same,glycan array binding signal (z-score),[15],-0.233
same,glycan array binding signal (z-score),[16],-1.23
same,glycan array binding signal (z-score),[17],1.35
same,glycan array binding signal (z-score),[18],0.866

# 4 successive entries already listed, for reference:
binder,measurement,setting,value
B1,glycan array binding signal (z-score),[2],-0.673
same,glycan array binding signal (z-score),Gal(b1-4)GlcNAc(b1-2)Man,0.263
same,glycan array binding signal (z-score),[3],-0.886
same,glycan array binding signal (z-score),[4],-0.557
